Some of the results follow. Shown are side measurements of this screen, not its main read-out; they come without a call. Most of these compounds were active or inconclusive in the main read-out, so they are no random draw. Words in brackets tell the shape of the fitted curve; partial curves, single points and poor fits give uncertain potencies.
Assay: qHTS Assay to Find Inhibitors of Chronic Active B-Cell Receptor Signaling
Details: ABC-DLBCL IkBa-CBG/CBR reporter, luminescence ratio (green luciferase fused to IkBa over red control in TMD8 lymphoma cells), 4 h
Summary of the method: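 Concentration-response series (up to 46 uM) were applied to TMD8 dual-reporter cells for 4 h at 37C with doxycycline. Green/red ratio, after filter-overlap correction, defined %Activity; red signal alone was normalised to basal cells and zero luminescence.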

[1] = measured here: CBR red luminescence, cell number
[2] = measured here: IkBa-CBG green luminescence

Row | Structure (SMILES) | AC50 [1] | AC50 [2]
1 | CC(C)[C@H](NS(=O)(=O)/C=C/c1ccccc1)C(=O)OCC(=O)NC(N)=O | 11.2 µM [rising, single point] | 
2 | COc1ccccc1NC(=O)Cn1c(O)c(N=NC(=O)c2ccccc2O)c2ccccc21 | 1.58 µM [falling, partial curve, poor fit] | 
3 | O=C(O)c1ccccc1-c1ccc(/C=C/c2cc(C(F)(F)F)[nH]c(=O)n2)o1 | 35.5 µM [falling, single point] | 
4 | CCOc1ccccc1NC(=O)CSc1nnc2[nH]c(=O)cc(C)n12 | 22.4 µM [falling, single point] | 
5 | Cc1ccc(N=Cc2c(C)[nH]n(-c3nc4ccccc4[nH]3)c2=O)cc1 | 2.31 µM [falling, full curve, poor fit] | 
6 | CSc1nc2sc3c(c2c(=S)[nH]1)CC(C)(C)OC3 | 0.562 µM [rising, full curve, poor fit] | 
7 | O=C(COc1ccc(Br)cc1)Nc1nc(-c2cccnc2)cs1 | 0.708 µM [rising, partial curve, poor fit] | 
8 | Cc1ccc(OCc2nc(-c3ccccc3)no2)c(C)c1 | 0.1 µM [rising, full curve, poor fit] | 
9 | O=C(NCc1cccs1)C1CC(c2ccc(Cl)cc2)=NO1 (centres undefined) | 3.98 µM [falling, full curve] | 
10 | COc1ccccc1NC(=O)CSc1nc2[nH]ncc2c(=O)[nH]1 | 29.1 µM [falling, single point] | 
11 | Cc1cc(C)c(O)c(-c2cc(C(=O)NCCc3ccc(S(N)(=O)=O)cc3)[nH]n2)c1 | 35.5 µM [falling, single point] | 
12 | CC(=O)Oc1ccc(N2C(=O)C3C(C2=O)C2(C)C=CC3(C)O2)cc1 (centres undefined) | 22.4 µM [falling, single point] | 
13 | COc1cccc(CNC(=O)CN2CCC(c3nc4ccc(C)cc4[nH]3)CC2)c1 | 11.2 µM [rising, partial curve, poor fit] | 
14 | Cc1cc(-c2n[nH]c(=S)n2/N=C/c2c[nH]c3ccccc23)n[nH]1 | 0.316 µM [rising, full curve, poor fit] | 
15 | CCOc1ccc(/C=C2\CCC(C3CCCC3)C2=O)cc1OC (centres undefined) | 2.82 µM [rising, full curve, poor fit] | 
16 | O=C(COC(=O)C1CCCO1)Nc1nc(-c2ccc(F)cc2)cs1 (centres undefined) | 4.11 µM [falling, single point] | 6.51 µM [rising, partial curve, poor fit]

Row | Structure (SMILES) | AC50 [1] | AC50 [2]
17 | C=C(C)c1ccc(C(C)(C)NC(=O)NCc2ccco2)cc1 | 0.116 µM [falling, full curve] | 
18 | O=C(NC(=S)Nc1ccc2nc[nH]c2c1)c1ccccc1 | 7.94 µM [falling, partial curve, poor fit] | 
19 | COc1ccc2[nH]c3c(c2c1)CCNC3C1CC=C(C)CC1 (centres undefined) | 31.6 µM [rising, single point] | 35.5 µM [falling, single point]
20 | CN(C)CCCN(C(=O)COc1ccc(Cl)cc1)c1nc2cc3c(cc2s1)OCCO3 | 0.231 µM [falling, full curve] | 
21 | O=C(c1ccc2c(=O)n3c(nc2c1)CCCCC3)N1CCN(Cc2ccccc2)CC1 | 16.4 µM [rising, single point] | 
22 | CCCCc1cc2c(s1)CCCC/C2=N/O | 11.6 µM [rising, partial curve] | 
23 | COC(=O)c1ccccc1NC(=O)CN(c1ccc(C)cc1)S(C)(=O)=O | 3.16 µM [rising, single point] | 
24 | CCC(=O)N/N=C(\C)CC(=O)Nc1ccccc1-c1ccccc1 | 20.6 µM [falling, single point] | 
25 | Cc1ccc2oc(-c3cccc(N)c3)nc2c1 | 11.2 µM [falling, single point] | 
26 | COc1ccc(-c2cc(C(=O)Nc3cc(S(=O)(=O)N4CCOCC4)ccc3N3CCOCC3)c3ccccc3n2)cc1 | 1.58 µM [rising, partial curve] | 
27 | O=C(CSc1nc(-c2ccccc2)nn1C(=O)c1ccccc1)Nc1cccc([N+](=O)[O-])c1 | 12.6 µM [falling, partial curve] | 
28 | CCOC(=O)C1=C(C)NC2=C(C1c1ccc([N+](=O)[O-])cc1)S(=O)(=O)c1ccccc12 (centres undefined) | 11.6 µM [rising, partial curve, poor fit] | 
29 | COc1cc(NC(=O)c2ccc(NS(=O)(=O)c3c(C)noc3C)cc2)cc(OC)c1 | 25.1 µM [falling, partial curve, poor fit] | 
30 | COc1cc(C(=O)Nc2cccc(-c3nncn3C)c2)cc(OC)c1OC |  | 29.1 µM [falling, partial curve, poor fit]
31 | CCOC(=O)c1cnc2c(CC)cccc2c1NCCN1CCOCC1 | 3.98 µM [rising, single point] | 
32 | CCOC(=O)c1sc(N)c(C(=O)Nc2ccccc2)c1C | 35.5 µM [falling, partial curve, poor fit] | 

Arranged by count of non-hydrogen atoms (smallest number first): 8 of the compounds above
Row | Structure (SMILES) | AC50 [1] | AC50 [2]
25 | Cc1ccc2oc(-c3cccc(N)c3)nc2c1 | 11.2 µM [falling, single point] | 
6 | CSc1nc2sc3c(c2c(=S)[nH]1)CC(C)(C)OC3 | 0.562 µM [rising, full curve, poor fit] | 
19 | COc1ccc2[nH]c3c(c2c1)CCNC3C1CC=C(C)CC1 (centres undefined) | 31.6 µM [rising, single point] | 35.5 µM [falling, single point]
14 | Cc1cc(-c2n[nH]c(=S)n2/N=C/c2c[nH]c3ccccc23)n[nH]1 | 0.316 µM [rising, full curve, poor fit] | 
12 | CC(=O)Oc1ccc(N2C(=O)C3C(C2=O)C2(C)C=CC3(C)O2)cc1 (centres undefined) | 22.4 µM [falling, single point] | 
1 | CC(C)[C@H](NS(=O)(=O)/C=C/c1ccccc1)C(=O)OCC(=O)NC(N)=O | 11.2 µM [rising, single point] | 
11 | Cc1cc(C)c(O)c(-c2cc(C(=O)NCCc3ccc(S(N)(=O)=O)cc3)[nH]n2)c1 | 35.5 µM [falling, single point] | 
26 | COc1ccc(-c2cc(C(=O)Nc3cc(S(=O)(=O)N4CCOCC4)ccc3N3CCOCC3)c3ccccc3n2)cc1 | 1.58 µM [rising, partial curve] | 
